The supplement of paper PMC10849652
The list shows a part of the results.

The chains behind the UniProt entries cited, without tags or fusion partners. Where a name states a change or a piece, a line headed by the entry shows the natural chain unless it says otherwise.
UniProt Q8WV74: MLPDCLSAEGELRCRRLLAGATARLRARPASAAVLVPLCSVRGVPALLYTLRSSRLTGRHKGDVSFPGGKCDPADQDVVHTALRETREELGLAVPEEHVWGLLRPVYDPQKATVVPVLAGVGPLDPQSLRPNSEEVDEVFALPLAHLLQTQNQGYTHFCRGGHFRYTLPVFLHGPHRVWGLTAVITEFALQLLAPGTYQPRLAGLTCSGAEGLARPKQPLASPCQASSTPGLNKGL
UniProt Q8WV22: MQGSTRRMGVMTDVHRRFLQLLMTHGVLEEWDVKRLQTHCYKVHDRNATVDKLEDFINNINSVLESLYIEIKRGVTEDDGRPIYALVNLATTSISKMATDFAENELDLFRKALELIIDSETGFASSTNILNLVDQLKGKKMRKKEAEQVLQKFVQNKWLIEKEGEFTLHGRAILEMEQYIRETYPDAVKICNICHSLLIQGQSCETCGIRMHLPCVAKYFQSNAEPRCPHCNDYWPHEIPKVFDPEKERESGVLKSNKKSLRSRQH
UniProt O15504: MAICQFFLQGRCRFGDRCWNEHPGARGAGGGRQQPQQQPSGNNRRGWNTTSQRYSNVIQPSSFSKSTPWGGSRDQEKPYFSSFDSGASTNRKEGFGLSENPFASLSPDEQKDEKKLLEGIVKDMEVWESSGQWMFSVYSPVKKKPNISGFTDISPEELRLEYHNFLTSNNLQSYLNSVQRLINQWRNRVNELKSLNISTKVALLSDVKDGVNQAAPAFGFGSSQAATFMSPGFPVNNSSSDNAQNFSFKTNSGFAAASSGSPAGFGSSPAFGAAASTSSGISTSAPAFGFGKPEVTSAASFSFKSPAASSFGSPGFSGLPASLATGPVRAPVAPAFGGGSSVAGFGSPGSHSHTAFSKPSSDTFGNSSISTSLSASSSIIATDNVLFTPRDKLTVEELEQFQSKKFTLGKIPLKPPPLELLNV
UniProt Q13416: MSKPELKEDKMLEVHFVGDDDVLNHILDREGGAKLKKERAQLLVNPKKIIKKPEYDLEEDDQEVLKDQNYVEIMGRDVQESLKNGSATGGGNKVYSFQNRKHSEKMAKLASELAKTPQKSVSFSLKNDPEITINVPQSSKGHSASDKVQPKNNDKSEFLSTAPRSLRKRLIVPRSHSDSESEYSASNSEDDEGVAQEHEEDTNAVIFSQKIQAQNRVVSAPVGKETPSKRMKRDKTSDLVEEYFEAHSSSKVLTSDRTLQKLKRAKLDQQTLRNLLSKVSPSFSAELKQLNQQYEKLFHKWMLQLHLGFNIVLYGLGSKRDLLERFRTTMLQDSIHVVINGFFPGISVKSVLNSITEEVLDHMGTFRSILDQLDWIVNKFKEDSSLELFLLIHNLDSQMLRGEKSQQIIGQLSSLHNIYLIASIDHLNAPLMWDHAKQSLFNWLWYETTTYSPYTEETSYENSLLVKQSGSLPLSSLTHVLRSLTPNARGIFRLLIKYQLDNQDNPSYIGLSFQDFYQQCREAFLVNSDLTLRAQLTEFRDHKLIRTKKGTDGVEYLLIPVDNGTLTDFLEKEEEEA
UniProt Q96RS6: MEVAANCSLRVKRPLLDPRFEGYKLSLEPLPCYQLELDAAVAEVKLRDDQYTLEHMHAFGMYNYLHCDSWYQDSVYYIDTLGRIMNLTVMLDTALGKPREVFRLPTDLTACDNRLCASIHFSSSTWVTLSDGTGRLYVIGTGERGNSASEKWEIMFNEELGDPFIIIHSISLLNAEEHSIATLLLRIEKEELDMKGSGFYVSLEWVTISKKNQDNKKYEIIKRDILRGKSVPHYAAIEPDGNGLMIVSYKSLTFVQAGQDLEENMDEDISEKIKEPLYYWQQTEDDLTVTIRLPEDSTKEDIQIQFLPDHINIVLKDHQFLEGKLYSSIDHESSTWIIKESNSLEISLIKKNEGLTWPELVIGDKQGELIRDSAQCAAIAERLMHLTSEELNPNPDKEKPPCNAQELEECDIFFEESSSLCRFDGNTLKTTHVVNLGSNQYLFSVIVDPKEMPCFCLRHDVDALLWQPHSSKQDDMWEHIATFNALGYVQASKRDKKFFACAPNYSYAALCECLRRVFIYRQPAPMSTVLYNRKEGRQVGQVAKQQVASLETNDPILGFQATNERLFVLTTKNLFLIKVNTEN
UniProt Q96P11: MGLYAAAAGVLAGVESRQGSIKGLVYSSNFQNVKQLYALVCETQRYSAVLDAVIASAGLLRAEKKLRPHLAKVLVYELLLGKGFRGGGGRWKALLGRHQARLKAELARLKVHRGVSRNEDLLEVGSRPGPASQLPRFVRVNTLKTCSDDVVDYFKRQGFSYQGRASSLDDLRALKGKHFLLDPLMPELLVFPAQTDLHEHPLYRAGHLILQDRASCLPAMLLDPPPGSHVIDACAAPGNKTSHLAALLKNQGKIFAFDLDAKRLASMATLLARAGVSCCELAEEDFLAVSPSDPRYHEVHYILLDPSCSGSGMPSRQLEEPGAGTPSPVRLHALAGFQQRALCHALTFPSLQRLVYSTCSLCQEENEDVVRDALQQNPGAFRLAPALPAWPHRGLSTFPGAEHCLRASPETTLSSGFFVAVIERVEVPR
UniProt Q8IVL6: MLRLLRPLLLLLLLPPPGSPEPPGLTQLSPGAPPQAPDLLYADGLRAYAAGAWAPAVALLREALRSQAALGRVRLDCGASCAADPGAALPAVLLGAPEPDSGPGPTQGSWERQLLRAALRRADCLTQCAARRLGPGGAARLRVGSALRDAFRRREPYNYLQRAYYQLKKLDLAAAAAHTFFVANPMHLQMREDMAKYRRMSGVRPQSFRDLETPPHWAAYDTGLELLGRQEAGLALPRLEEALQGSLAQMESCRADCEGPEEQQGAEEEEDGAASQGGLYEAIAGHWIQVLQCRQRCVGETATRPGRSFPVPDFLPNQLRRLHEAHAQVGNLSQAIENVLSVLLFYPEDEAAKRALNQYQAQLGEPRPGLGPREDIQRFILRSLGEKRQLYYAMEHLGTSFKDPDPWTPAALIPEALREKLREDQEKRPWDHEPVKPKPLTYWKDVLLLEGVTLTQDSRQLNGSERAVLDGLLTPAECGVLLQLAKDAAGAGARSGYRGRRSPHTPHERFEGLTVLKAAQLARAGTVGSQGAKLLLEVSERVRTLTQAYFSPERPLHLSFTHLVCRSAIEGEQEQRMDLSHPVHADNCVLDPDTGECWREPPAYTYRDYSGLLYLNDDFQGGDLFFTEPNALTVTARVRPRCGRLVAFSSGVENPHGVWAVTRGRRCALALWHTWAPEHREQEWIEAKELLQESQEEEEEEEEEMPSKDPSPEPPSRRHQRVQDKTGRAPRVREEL
UniProt Q9H6K4: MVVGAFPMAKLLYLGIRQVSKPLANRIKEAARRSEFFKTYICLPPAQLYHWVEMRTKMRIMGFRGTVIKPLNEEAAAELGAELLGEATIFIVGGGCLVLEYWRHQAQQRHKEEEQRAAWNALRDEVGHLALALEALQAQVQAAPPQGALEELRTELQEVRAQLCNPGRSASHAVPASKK
UniProt Q96BN8, whole entry, looked up: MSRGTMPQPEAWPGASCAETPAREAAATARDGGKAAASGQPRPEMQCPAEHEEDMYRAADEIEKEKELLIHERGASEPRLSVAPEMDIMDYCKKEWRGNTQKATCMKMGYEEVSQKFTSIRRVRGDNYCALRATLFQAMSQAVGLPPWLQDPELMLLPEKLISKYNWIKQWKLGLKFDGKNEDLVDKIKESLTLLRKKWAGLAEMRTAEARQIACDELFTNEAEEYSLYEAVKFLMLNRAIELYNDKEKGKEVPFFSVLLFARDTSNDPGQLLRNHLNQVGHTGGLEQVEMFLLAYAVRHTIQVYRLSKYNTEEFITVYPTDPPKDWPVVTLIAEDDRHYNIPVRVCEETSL
UniProt Q6ZVK8: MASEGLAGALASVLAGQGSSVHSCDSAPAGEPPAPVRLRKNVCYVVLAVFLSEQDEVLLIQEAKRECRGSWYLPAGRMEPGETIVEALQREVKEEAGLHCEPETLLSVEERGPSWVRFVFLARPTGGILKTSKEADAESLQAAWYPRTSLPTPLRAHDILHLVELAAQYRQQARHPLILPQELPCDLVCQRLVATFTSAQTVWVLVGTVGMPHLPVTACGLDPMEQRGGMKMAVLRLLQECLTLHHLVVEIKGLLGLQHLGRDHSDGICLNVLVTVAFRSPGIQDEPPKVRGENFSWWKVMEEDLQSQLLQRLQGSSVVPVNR
UniProt Q9ULJ1: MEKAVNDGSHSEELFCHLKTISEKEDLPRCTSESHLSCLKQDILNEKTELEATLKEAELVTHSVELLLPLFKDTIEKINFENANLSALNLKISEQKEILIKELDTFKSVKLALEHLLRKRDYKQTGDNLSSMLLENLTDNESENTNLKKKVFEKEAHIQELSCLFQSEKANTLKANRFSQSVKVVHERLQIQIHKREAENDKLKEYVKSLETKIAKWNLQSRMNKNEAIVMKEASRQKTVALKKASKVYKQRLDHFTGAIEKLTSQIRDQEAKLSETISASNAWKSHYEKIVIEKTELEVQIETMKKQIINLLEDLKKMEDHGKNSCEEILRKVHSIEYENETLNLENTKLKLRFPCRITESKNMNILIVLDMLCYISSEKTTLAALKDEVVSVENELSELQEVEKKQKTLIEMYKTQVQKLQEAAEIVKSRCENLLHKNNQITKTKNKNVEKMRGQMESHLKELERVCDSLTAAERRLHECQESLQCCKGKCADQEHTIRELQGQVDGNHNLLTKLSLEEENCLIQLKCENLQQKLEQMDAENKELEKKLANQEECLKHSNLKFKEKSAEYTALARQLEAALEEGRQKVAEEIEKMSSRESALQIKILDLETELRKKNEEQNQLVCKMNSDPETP
UniProt Q96D31, whole entry, looked up: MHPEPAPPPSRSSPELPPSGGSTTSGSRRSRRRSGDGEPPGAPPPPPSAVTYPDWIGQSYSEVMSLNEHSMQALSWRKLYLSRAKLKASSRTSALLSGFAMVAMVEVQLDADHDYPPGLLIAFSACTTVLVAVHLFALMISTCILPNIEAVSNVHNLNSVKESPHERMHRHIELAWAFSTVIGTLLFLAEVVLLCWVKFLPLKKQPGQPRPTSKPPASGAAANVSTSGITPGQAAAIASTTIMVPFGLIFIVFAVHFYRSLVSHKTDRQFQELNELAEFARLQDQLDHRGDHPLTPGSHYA
UniProt Q8NFH5: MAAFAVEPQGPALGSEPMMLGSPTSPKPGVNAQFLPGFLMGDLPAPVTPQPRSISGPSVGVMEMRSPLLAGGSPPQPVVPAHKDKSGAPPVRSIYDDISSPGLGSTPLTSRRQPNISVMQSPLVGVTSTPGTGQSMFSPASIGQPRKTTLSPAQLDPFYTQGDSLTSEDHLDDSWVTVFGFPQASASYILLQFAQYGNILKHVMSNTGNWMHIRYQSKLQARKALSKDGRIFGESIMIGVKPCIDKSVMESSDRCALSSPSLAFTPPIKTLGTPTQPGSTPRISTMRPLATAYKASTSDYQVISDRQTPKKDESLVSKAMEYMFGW
UniProt Q9UBU9: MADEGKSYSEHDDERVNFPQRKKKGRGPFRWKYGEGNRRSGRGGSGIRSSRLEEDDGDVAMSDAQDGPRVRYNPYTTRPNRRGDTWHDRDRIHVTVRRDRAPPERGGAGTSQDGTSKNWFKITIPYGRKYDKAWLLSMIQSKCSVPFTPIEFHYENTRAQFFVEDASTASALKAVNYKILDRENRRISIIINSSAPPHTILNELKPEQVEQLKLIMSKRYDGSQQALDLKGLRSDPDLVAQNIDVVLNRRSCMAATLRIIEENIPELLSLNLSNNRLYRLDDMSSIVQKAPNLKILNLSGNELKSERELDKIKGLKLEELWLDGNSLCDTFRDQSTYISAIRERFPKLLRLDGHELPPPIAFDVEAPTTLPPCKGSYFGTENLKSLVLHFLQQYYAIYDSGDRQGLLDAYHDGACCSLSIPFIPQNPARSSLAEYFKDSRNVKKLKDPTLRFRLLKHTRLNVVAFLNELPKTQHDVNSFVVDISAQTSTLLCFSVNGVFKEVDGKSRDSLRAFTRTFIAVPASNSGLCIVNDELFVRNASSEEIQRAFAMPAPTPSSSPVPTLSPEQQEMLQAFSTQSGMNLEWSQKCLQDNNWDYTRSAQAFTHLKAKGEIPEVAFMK
UniProt P13674: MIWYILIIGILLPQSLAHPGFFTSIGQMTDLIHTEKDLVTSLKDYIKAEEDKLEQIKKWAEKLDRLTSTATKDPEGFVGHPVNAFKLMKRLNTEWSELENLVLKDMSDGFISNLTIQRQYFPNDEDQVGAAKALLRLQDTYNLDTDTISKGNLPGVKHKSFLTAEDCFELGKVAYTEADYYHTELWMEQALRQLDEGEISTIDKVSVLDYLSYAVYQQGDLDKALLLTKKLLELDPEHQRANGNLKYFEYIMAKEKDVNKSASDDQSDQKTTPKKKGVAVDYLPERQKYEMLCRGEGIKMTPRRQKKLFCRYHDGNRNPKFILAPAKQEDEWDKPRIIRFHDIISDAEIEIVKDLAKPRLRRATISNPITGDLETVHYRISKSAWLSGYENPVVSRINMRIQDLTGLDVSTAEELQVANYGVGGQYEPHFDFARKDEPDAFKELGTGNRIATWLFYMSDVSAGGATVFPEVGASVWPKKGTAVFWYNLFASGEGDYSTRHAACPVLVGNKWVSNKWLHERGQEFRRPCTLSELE

Tests used:
Experiment in all cases: log2 fold change, soluble protein after heating vs DMSO (PISA); higher = thermal stabilisation; K562 cells, 10 uM, 30 min; active = over 0.2 and 3.5 SD of the protein, either way, in both replicates (recomputed)
[1] = compound: CC1=C(SC2=C1C(=N[C@H](C3=NN=C(N32)C)CC(=O)N)C4=CC=C(C=C4)Cl)C
Outline: (§1)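 Soluble protein was quantified by TMTpro 16plex LC-MS/MS after channel sums were equalised. It was obtained as the supernatant after 21,000xg for 90 min from pooled aliquots of K562 cells (2×10^6 cells/mL, 10 μM compound, 30 min) heated for 3 min across 48°C-58°C and extracted in PBS with 0.5% NP-40 at 4°C. Thermal stability values are relative to control samples and come from duplicates. They are given as log2 fold changes.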

[2] = compound: CC1=C2C(=CC=C1)N=C(N(C2=O)C3=CC=CC=C3C)CN4C=NC5=C(N=CN=C54)N
Outline: as §1

[3] = compound: Cc1sc2c(c1C)C(c1ccc(Cl)cc1)=N[C@@H](CC(=O)OC(C)(C)C)c1nnc(C)n1-2
Outline: as §1

[4] = compound: c1ccc([C@@H]2C[C@H]2NC2CCNCC2)cc1
Outline: as §1

[5] = compound: C1=CC=C(C=C1)[C@H](COC2=CC3=C(C=C2)NC(=O)N3)NC(=O)C4=CC=CN(C4=O)CC5=CC(=C(C=C5)F)F
Outline: as §1

Measured: log2 fold change

OSBPL3 (UniProt Q9H4L5)
inactive: [1] -0.077 | [2] -0.035 | [3] 0.292 | [4] 0.14

NUB1 (UniProt Q9Y5A7)
inactive: [5] -0.092 | [1] 0.055 | [2] 0.192 | [3] 0.095 | [4] 0.103

NUDT8 (UniProt Q8WV74)
inactive: [5] -0.022 | [1] 0.125 | [2] 0.153 | [3] 0.123 | [4] -0.045

NUMBL (UniProt Q9Y6R0)
inactive: [5] -0.058 | [1] -0.084 | [2] 0.009 | [4] -0.009

NSMCE1 (UniProt Q8WV22)
inactive: [1] -0.051 | [2] -0.117 | [3] 0.062 | [4] 0.085

NUDT6 (UniProt P53370)
inactive: [1] 0.073 | [2] 0.34 | [3] -0.023 | [4] -0.212

OMA1 (UniProt Q96E52)
inactive: [5] -0.012 | [1] -0.051 | [2] 0.028 | [3] -0.055 | [4] -0.015

NUP42 (UniProt O15504)
inactive: [5] 0.16 | [1] -0.195 | [3] 0.285 | [4] 0.058

ORC2 (UniProt Q13416)
inactive: [5] -0.073 | [3] 0

NUDT7 (UniProt P0C024)
inactive: [5] -0.077 | [3] -0.047

NUDCD1 (UniProt Q96RS6)
inactive: [5] -0.033 | [1] 0.026 | [2] 0.086 | [3] -0.016 | [4] -0.036

NSUN5 isoform 2 (UniProt Q96P11)
inactive: [5] -0.075 | [1] -0.04 | [2] -0.115 | [3] -0.057 | [4] 0.079

NUDT2 (UniProt P50583)
inactive: [5] -0.065 | [1] 0.053 | [2] -0.072 | [3] 0 | [4] -0.021

ORMDL1 (UniProt Q9P0S3)
inactive: [3] 0.002

OPHN1 (UniProt O60890)
inactive: [5] -0.209 | [1] 0.033 | [3] 0.008 | [4] 0.07

NUDT17 (UniProt P0C025)
inactive: [5] 0.336 | [1] 0.058 | [2] -0.066 | [3] -0.186 | [4] -0.103

P3H3 (UniProt Q8IVL6)
inactive: [3] 0.03

OXR1 isoform 2 (UniProt Q8N573)
inactive: [1] 0.126 | [2] 0.025 | [3] -0.035 | [4] -0.101

OPA3 (UniProt Q9H6K4)
inactive: [5] -0.044 | [1] -0.045 | [2] 0.083 | [3] 0.057 | [4] 0.067

OTULIN (UniProt Q96BN8)
inactive: [5] -0.07 | [1] -0.019 | [2] 0.124 | [3] 0.005 | [4] 0.005

NUP210 (UniProt Q8TEM1)
inactive: [5] -0.083 | [1] 0.059 | [2] 0.037 | [3] -0.013 | [4] -0.028

NUDT18 (UniProt Q6ZVK8)
inactive: [1] 0.157 | [2] 0.038 | [3] -0.092 | [4] 0.103

ODF2L isoform 4 (UniProt Q9ULJ1)
inactive: [5] 0.063 | [2] 0.019

NUF2 (UniProt Q9BZD4)
inactive: [5] -0.21 | [1] 0.023 | [2] -0.02 | [4] 0.07

ORAI1 (UniProt Q96D31)
inactive: [5] 0.002 | [2] -0.292 | [3] -0.042

NTMT1 (UniProt Q9BV86)
inactive: [5] 0.001 | [1] 0.034 | [2] 0.079 | [3] -0.118 | [4] -0.049

NUP35 (UniProt Q8NFH5)
inactive: [5] -0.094 | [1] -0.008 | [2] 0.012 | [3] 0.044 | [4] 0.051

OBSCN (UniProt A6NGQ3)
inactive: [5] -0.27 | [1] -0.131 | [3] -0.115 | [4] 0.164

9 neighbouring entries already listed:
NSMCE1 (UniProt Q8WV22)
inactive: [1] -0.051 | [2] -0.117 | [3] 0.062 | [4] 0.085

NUDT6 (UniProt P53370)
inactive: [1] 0.073 | [2] 0.34 | [3] -0.023 | [4] -0.212

OMA1 (UniProt Q96E52)
inactive: [5] -0.012 | [1] -0.051 | [2] 0.028 | [3] -0.055 | [4] -0.015

NUP42 (UniProt O15504)
inactive: [5] 0.16 | [1] -0.195 | [3] 0.285 | [4] 0.058

ORC2 (UniProt Q13416)
inactive: [5] -0.073 | [3] 0

NUDT7 (UniProt P0C024)
inactive: [5] -0.077 | [3] -0.047

NUDCD1 (UniProt Q96RS6)
inactive: [5] -0.033 | [1] 0.026 | [2] 0.086 | [3] -0.016 | [4] -0.036

NSUN5 isoform 2 (UniProt Q96P11)
inactive: [5] -0.075 | [1] -0.04 | [2] -0.115 | [3] -0.057 | [4] 0.079

NUDT2 (UniProt P50583)
inactive: [5] -0.065 | [1] 0.053 | [2] -0.072 | [3] 0 | [4] -0.021

Further entries follow.

NXF1 (UniProt Q9UBU9)
inactive: [3] 0.165

OS9 (UniProt Q13438)
inactive: [5] 0.062 | [1] -0.01 | [2] 0.017 | [3] 0.005 | [4] -0.001

P4HA1 isoform 2 (UniProt P13674)
inactive: [5] 0.065 | [1] -0.032 | [2] 0.006 | [3] -0.05 | [4] 0.009
